Laboratory results: PubChem BioAssay AID1259424 (University of Nebraska Medical Center, 2018)
Here is an unselected part of about 14,000 deposited reagents. 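Higher correlation or smaller distance means closer resemblance to KSR1 loss; control wells, including KSR1 knockdowns, recur on many plates.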 A reagent listed more than once was tested more than once; the source does not tell the runs apart. Not all columns of the deposit are shown. The record does not give: the time to read-out.

- Aim: 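Rank knockdowns across the genome by resemblance to the KSR1 depletion profile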 (primary screen)
- Cell system: human HCT116 colon cancer cells
- Reagents: siRNA pool against human genes, 50 nM
- Read-out: 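Log2 levels of six mRNAs (branched-DNA multiplex), adjusted by two reference genes and the non-targeting median, then scored against the average KSR1 knockdown pattern as Pearson r and euclidean distance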
- Direction: mean correlation with KSR1 profile and KSR1 correlation: higher = expression change more like KSR1 knockdown; mean distance from KSR1 profile: higher = expression change less like KSR1 knockdown

Target gene,mean correlation with KSR1 profile,mean distance from KSR1 profile,"KSR1 correlation, replicate 1"
MPHOSPH8 (M-phase phosphoprotein 8),0.368,1.73,0.472
EIF1 (eukaryotic translation initiation factor 1),-0.345,3.1,-0.18
NUFIP2 (nuclear FMR1 interacting protein 2),0.376,1.78,0.406
HABP2 (hyaluronan binding protein 2),-0.216,1.56,-0.731
PPP1CC (protein phosphatase 1 catalytic subunit gamma),-0.0315,1.02,-0.473
LRRC8C (leucine rich repeat containing 8 VRAC subunit C),0.221,2.44,0.344
CARD18 (caspase recruitment domain family member 18),-0.00373,1.78,-0.168
SPATA3 (spermatogenesis associated 3),0.366,1.34,0.392
ZNF350 (zinc finger protein 350),-0.749,2.24,-0.772
KLK3 (kallikrein related peptidase 3),-0.358,2.93,-0.371
ZFYVE26 (zinc finger FYVE-type containing 26),-0.536,3.63,-0.512
TRIM36 (tripartite motif containing 36),0.599,1.61,0.59
IL24 (interleukin 24),-0.169,1.44,-0.114
SLC15A1,-0.282,2.97,-0.131
KLK10 (kallikrein related peptidase 10),0.674,3.32,0.634
ZSCAN21 (zinc finger and SCAN domain containing 21),0.485,3.48,0.552
TINAGL1 (tubulointerstitial nephritis antigen like 1),-0.353,2.69,-0.417
VASP (vasodilator stimulated phosphoprotein),0.351,2.54,0.545
RILPL2 (Rab interacting lysosomal protein like 2),-0.633,2.72,-0.537
SYNPO (synaptopodin),0.187,2.65,0.494
KRT18 (keratin 18),0.0522,1.79,-0.0817
MT-ND1 (mitochondrially encoded NADH dehydrogenase 1),0.65,2,0.546
PPP4R3A (protein phosphatase 4 regulatory subunit 3A),-0.483,1.98,-0.681
IL3RA (interleukin 3 receptor subunit alpha),0.362,1.45,0.347
COBL (cordon-bleu WH2 repeat protein),-0.522,3.87,-0.379
CKS2 (CDC28 protein kinase regulatory subunit 2),0.65,1.91,0.815
XRN2 (5'-3' exoribonuclease 2),-0.371,2.54,-0.23
AKAP17A (A-kinase anchoring protein 17A),-0.595,3.59,-0.547
EEF1E1 (eukaryotic translation elongation factor 1 epsilon 1),0.392,1.64,0.278
OR7E5P (olfactory receptor family 7 subfamily E member 5 pseudogene),0.414,1.47,0.609
LPO (lactoperoxidase),0.871,1.48,0.822
H4C9 (H4 clustered histone 9),0.744,3.22,0.467
"CENPBD1P (CENPB DNA-binding domain containing 1, pseudogene)",-0.283,1.1,-0.309
ITGB1BP2 (integrin subunit beta 1 binding protein 2),-0.144,1.7,0.217
NFIB (nuclear factor I B),-0.0292,2.54,0.219
BAGE2 (BAGE family member 2 (pseudogene)),-0.0528,3.02,-0.0941
BOLL (boule RNA binding protein),-0.372,2.74,-0.34
IL17A (interleukin 17A),0.118,1.2,0.329
TIMM23B (translocase of inner mitochondrial membrane 23 homolog B),-0.471,3.09,-0.53
RAB11FIP1 (RAB11 family interacting protein 1),0.00959,1.25,0.0588
CBFA2T2 (CBFA2/RUNX1 partner transcriptional co-repressor 2),0.531,4.63,0.485
GOLGA7 (golgin A7),-0.396,2.74,-0.502
ARSF (arylsulfatase F),-0.179,1.46,0.0911
BCS1L (BCS1 ubiquinol-cytochrome c reductase complex chaperone),0.355,2.28,0.542
ITGB3BP (integrin subunit beta 3 binding protein),-0.236,0.871,-0.123
OLFM1 (olfactomedin 1),-0.642,2.4,-0.681
OLFM1 (olfactomedin 1),-0.69,3.21,-0.598
CAMKV (CaM kinase like vesicle associated),0.00586,2.85,0.129
CAPS2 (calcyphosine 2),0.0959,2.97,0.0521
STX3 (syntaxin 3),-0.0579,0.867,-0.283
SOS2 (SOS Ras/Rho guanine nucleotide exchange factor 2),-0.354,2.2,-0.288
HAPSTR1 (HUWE1 associated protein modifying stress responses),-0.383,2.76,-0.377
HOXA4 (homeobox A4),0.341,1.62,0.542
KDM5A (lysine demethylase 5A),-0.622,2.6,-0.227
BEX1 (brain expressed X-linked 1),0.406,2.65,0.189
ICA1 (islet cell autoantigen 1),-0.413,4.51,-0.408
TMEM121B (transmembrane protein 121B),-0.113,2.38,-0.424
PREX2,0.327,2.77,0.119
GRIN1 (glutamate ionotropic receptor NMDA type subunit 1),0.499,1.86,0.571
FSD1L (fibronectin type III and SPRY domain containing 1 like),0.403,1.96,0.0225
SIGLEC11 (sialic acid binding Ig like lectin 11),0.798,1.66,0.821
PAPPA (pappalysin 1),0.319,1.41,0.148
CCNB2 (cyclin B2),-0.921,2.55,-0.894
